Reference: the supplement of paper PMC12823440, “Inhibitors supercharge kinase turnover through native proteolytic circuits” (Nature, 2025)
Some of the results follow. Hit calls seldom repeat between salt and free forms of one compound.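 Kinases, fused to nanoluciferase, were expressed in K562 cells; luminescence was measured every 4 h from 2 to 18 h as percent of control (DMSO = 100%, positive control = 0%). A time point is decreased if signal falls significantly (2 sigma). Hits were called by the authors by a rule that is not shown; the count of time points alone does not decide it.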

Protein sequences, listed by entry. Tags and fused reporters are not part of them. Lines headed by an entry give the natural chain unless they say otherwise; changes in a name come on top.
UniProt Q9Y616: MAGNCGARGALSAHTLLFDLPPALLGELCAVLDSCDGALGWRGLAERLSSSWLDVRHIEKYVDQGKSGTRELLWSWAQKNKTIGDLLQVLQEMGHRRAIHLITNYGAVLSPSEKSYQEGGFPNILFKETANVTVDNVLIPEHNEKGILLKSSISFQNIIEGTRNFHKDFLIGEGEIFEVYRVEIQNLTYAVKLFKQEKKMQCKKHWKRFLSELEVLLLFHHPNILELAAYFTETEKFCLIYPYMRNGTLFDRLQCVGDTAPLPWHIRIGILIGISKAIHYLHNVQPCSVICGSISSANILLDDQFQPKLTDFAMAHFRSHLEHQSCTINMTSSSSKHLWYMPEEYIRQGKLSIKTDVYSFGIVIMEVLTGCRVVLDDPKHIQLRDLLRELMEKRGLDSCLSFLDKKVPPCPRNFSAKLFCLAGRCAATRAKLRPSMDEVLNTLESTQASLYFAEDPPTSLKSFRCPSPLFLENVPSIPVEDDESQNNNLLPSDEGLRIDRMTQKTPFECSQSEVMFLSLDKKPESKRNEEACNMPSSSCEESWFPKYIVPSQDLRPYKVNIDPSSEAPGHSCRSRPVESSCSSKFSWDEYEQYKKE
UniProt P23458: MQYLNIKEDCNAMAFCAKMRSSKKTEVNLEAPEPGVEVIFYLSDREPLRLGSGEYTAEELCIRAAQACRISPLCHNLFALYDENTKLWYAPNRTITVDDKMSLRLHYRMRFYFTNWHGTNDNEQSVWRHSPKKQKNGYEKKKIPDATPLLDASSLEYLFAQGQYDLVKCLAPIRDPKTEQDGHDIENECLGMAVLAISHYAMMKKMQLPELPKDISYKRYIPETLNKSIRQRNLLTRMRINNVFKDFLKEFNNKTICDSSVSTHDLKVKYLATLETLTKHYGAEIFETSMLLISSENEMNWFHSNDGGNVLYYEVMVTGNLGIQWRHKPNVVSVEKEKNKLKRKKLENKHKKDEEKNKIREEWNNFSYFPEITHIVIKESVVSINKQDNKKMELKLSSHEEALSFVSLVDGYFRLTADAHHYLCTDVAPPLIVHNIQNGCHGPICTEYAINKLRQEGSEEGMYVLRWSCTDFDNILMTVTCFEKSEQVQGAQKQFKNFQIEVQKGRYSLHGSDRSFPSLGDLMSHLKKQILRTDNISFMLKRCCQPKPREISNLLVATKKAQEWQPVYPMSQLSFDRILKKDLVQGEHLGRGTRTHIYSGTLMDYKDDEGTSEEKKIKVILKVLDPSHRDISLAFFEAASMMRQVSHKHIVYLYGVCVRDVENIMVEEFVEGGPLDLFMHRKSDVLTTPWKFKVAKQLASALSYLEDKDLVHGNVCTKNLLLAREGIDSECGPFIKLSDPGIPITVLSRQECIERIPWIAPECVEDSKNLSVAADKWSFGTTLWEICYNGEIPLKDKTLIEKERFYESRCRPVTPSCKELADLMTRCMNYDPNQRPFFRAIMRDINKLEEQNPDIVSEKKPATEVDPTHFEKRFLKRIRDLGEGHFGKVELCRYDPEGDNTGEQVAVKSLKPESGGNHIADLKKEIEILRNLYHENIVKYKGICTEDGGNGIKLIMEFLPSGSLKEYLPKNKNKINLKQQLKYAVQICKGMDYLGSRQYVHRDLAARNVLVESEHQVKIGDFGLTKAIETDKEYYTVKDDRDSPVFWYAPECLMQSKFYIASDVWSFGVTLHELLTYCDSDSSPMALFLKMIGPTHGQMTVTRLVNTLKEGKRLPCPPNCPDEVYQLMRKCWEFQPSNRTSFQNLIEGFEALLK
UniProt P06239: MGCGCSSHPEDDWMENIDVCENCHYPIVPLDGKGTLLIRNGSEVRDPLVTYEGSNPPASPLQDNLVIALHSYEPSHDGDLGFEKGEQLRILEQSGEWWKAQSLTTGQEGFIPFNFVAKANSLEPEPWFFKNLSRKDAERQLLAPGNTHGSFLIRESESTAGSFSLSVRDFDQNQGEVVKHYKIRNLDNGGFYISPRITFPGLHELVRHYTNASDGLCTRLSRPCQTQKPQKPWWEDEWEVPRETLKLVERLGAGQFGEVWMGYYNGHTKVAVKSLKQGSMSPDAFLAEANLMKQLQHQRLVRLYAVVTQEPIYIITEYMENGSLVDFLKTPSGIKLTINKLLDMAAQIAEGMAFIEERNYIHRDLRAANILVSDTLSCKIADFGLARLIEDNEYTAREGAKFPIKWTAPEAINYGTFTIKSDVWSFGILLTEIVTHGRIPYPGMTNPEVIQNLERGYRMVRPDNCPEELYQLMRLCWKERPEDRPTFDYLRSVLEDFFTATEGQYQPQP
UniProt P53667: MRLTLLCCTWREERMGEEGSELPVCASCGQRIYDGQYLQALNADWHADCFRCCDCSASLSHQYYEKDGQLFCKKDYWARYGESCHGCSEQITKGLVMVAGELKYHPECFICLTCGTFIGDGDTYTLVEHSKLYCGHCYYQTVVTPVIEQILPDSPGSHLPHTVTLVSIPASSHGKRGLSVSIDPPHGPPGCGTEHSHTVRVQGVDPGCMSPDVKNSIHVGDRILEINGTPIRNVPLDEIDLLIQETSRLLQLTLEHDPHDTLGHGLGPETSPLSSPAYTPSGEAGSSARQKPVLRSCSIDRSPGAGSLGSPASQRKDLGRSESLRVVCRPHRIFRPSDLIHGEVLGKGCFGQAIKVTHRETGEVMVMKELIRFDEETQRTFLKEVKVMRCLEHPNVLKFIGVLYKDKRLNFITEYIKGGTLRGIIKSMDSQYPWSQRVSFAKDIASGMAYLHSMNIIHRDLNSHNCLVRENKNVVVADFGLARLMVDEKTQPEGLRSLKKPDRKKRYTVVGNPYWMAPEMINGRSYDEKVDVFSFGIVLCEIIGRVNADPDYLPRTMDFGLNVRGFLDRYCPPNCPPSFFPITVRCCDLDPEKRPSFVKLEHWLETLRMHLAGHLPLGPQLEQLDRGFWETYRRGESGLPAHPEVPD
UniProt P53671: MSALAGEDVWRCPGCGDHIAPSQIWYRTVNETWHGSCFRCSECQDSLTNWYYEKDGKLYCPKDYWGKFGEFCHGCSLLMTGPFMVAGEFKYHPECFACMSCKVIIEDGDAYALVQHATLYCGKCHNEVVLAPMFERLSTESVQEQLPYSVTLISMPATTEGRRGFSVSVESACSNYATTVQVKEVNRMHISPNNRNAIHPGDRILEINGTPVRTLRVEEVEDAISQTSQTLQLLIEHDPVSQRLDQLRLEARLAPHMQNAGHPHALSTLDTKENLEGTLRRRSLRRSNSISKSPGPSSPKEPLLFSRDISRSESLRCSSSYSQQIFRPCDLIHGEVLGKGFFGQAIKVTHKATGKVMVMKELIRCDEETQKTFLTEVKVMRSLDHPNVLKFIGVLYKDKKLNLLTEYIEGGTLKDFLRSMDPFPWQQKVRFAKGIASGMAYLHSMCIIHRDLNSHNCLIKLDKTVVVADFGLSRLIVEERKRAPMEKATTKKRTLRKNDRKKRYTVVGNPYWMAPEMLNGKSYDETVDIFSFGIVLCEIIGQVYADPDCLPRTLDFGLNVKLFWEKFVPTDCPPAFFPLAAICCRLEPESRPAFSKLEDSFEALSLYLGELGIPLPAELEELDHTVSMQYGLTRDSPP
UniProt Q8IWU2: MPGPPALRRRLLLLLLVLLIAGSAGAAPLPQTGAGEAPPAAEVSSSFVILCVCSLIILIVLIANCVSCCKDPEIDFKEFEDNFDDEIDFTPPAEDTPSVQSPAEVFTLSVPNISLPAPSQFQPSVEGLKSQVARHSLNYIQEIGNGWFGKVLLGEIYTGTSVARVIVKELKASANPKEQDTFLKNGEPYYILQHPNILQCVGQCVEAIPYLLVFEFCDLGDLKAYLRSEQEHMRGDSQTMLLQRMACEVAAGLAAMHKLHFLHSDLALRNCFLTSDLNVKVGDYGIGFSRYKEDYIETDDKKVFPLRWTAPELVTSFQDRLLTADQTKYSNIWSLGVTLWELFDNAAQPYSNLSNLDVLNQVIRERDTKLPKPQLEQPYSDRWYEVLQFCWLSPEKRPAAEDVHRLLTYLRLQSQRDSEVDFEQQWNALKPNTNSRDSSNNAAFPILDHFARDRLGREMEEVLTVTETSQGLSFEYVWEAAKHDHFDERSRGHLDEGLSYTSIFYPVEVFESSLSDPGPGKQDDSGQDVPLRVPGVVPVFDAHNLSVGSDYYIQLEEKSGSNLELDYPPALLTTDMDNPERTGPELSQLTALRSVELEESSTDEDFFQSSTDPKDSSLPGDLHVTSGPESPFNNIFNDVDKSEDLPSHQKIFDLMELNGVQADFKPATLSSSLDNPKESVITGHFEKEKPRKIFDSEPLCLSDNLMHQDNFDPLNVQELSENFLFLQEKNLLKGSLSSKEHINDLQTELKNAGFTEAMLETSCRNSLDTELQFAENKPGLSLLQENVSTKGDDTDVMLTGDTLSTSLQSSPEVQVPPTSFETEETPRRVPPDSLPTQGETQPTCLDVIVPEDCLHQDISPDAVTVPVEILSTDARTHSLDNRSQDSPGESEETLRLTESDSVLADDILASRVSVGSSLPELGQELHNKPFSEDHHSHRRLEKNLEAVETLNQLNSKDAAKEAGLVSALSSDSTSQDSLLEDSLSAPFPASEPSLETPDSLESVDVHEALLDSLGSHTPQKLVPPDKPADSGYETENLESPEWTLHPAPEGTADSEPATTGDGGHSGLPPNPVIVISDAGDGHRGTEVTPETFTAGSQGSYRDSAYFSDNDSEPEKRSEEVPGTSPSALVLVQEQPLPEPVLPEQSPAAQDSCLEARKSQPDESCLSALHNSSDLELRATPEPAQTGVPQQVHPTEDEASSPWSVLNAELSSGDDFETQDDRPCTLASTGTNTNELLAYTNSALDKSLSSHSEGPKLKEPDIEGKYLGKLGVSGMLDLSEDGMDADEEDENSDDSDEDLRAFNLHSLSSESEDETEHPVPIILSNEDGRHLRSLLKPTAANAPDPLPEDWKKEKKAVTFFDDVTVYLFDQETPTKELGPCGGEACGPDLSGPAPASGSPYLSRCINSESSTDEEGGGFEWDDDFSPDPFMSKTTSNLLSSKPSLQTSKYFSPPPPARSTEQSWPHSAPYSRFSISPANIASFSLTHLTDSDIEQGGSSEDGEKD
UniProt P07948: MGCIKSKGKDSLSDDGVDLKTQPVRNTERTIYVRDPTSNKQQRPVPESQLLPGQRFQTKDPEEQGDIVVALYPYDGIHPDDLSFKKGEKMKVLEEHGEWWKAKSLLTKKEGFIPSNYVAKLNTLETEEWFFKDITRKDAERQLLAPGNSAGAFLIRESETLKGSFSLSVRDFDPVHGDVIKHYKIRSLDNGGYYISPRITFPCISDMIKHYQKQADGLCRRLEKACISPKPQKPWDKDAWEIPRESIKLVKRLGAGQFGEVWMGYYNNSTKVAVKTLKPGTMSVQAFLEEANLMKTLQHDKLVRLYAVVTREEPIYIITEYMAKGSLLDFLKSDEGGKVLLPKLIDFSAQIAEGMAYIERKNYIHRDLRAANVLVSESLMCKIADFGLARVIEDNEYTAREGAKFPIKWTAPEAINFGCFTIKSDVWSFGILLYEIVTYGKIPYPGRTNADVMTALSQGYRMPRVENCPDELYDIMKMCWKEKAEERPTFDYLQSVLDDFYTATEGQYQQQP
UniProt Q12851: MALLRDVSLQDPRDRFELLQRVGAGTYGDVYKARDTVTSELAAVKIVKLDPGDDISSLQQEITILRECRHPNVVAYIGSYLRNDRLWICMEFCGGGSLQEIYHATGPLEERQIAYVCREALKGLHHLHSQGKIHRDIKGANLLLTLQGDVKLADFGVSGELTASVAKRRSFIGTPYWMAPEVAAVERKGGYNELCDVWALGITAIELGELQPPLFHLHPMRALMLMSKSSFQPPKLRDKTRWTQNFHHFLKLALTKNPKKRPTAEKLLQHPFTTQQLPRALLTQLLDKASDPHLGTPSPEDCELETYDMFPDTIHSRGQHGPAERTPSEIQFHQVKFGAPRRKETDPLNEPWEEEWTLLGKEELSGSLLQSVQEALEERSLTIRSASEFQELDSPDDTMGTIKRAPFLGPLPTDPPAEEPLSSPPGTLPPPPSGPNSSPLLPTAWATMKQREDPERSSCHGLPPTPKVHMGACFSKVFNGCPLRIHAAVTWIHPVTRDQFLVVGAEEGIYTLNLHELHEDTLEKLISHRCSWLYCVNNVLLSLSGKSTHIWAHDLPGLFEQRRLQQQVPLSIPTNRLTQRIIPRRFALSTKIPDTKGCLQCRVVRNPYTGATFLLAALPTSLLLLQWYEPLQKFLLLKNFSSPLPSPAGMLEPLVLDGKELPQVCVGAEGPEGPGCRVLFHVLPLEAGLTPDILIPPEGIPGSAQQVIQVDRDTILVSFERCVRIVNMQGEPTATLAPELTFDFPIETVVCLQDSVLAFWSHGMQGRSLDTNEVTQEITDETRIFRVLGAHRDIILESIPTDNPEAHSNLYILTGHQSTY

How the values were obtained:
Assay in all cases: kinase-Nluc reporter destabilization hit call (1 = scored as downregulated) (binary); higher = compound decreases kinase abundance
Conditions in all cases: K562; 2-18 h
IRAK3 = IRAK3 (UniProt Q9Y616)
JAK1 = JAK1 (UniProt P23458)
LCK = LCK (UniProt P06239)
LIMK1 = LIMK1 (UniProt P53667)
LIMK2 = LIMK2 (UniProt P53671)
LMTK2 = LMTK2 (UniProt Q8IWU2)
LYN = LYN (UniProt P07948)
MAP2K1 = MAP2K1 (UniProt Q02750)
MAP2K2 = MAP2K2 (UniProt P36507)
MAP4K2 = MAP4K2 (UniProt Q12851)

Measured: kinase-Nluc reporter destabilization hit call

Nc1cc(Nc2ccc(S(N)(=O)=O)cc2)ncn1 (10 µM)
inactive: IRAK3 = 0 | JAK1 = 0 | LCK 0 | LIMK1 = 0 | LIMK2 = 0 | LMTK2 = 0 | LYN 0 | MAP2K1 = 0 | MAP2K2 = 0 | MAP4K2 = 0

Cc1cc(Nc2nc(N[C@@H](C)c3ccc(F)cc3)c(C#N)cc2F)n[nH]1 (10 µM)
inactive: IRAK3 = 0 | JAK1 = 0 | LCK 0 | LIMK1 = 0 | LIMK2 = 0 | LMTK2 = 0 | LYN 0 | MAP2K1 = 0 | MAP2K2 = 0 | MAP4K2 = 0

COc1cc2ncn(-c3cc(OCc4ccccc4S(C)(=O)=O)c(C#N)s3)c2cc1OC (10 µM)
inactive: IRAK3 = 0 | JAK1 = 0 | LCK 0 | LIMK1 = 0 | LIMK2 = 0 | LMTK2 = 0 | LYN 0 | MAP2K1 = 0 | MAP2K2 = 0 | MAP4K2 = 0

O=c1cc(O)cc(/C=C/c2ccc(O)c(O)c2)o1 [Hispidin] (10 µM)
inactive: IRAK3 = 0 | JAK1 = 0 | LCK 0 | LIMK1 = 0 | LIMK2 = 0 | LMTK2 = 0 | LYN 0 | MAP2K1 = 0 | MAP2K2 = 0 | MAP4K2 = 0

Fc1ccc(-c2nc(-c3c(F)cccc3F)[nH]c2-c2ccncc2)cc1 (10 µM)
inactive: IRAK3 = 0 | JAK1 = 0 | LCK 0 | LIMK1 = 0 | LIMK2 = 0 | LMTK2 = 0 | LYN 0 | MAP2K1 = 0 | MAP2K2 = 0 | MAP4K2 = 0

C[C@@H]1C(=O)O[C@H](C)[C@H]1C[C@@H](O)[C@](C)(O)[C@H]1CC[C@@]2(O)C3=CC(=O)[C@@H]4C[C@@H](O)[C@@H](O)C[C@]4(C)[C@H]3CC[C@]12C [Cyasterone] (10 µM)
inactive: IRAK3 = 0 | JAK1 = 0 | LCK 0 | LIMK1 = 0 | LIMK2 = 0 | LMTK2 = 0 | LYN 0 | MAP2K1 = 0 | MAP2K2 = 0 | MAP4K2 = 0

COc1ncc(-c2nc(N3CCOCC3)nc3c(CN4CCC(C(C)(C)O)CC4)cc(F)cc23)cc1NS(C)(=O)=O [Linperlisib] (10 µM)
inactive: IRAK3 = 0 | JAK1 = 0 | LCK 0 | LIMK1 = 0 | LIMK2 = 0 | LMTK2 = 0 | LYN 0 | MAP2K1 = 0 | MAP2K2 = 0 | MAP4K2 = 0

CS(=O)(=O)c1ccc(-c2noc(C(F)(F)F)c2-c2ccccc2)cc1 (10 µM)
inactive: IRAK3 = 0 | JAK1 = 0 | LCK 0 | LIMK1 = 0 | LIMK2 = 0 | LMTK2 = 0 | LYN 0 | MAP2K1 = 0 | MAP2K2 = 0 | MAP4K2 = 0

O=C(/C=C/c1ccc(O)c(O)c1)OC1CC(OC(=O)/C=C/c2ccc(O)c(O)c2)(C(=O)O)CC(O)C1O (stereo not given) [1,3-Dicaffeoylquinic acid] (10 µM)
inactive: IRAK3 = 0 | JAK1 = 0 | LCK 0 | LIMK1 = 0 | LIMK2 = 0 | LMTK2 = 0 | LYN 0 | MAP2K1 = 0 | MAP2K2 = 0 | MAP4K2 = 0

COc1ccc(C(=O)Nc2sc3c(c2C(N)=O)CCCC3)cc1OC (10 µM)
inactive: IRAK3 = 0 | JAK1 = 0 | LCK 0 | LIMK1 = 0 | LIMK2 = 0 | LMTK2 = 0 | LYN 0 | MAP2K1 = 0 | MAP2K2 = 0 | MAP4K2 = 0

CS(=O)(=O)c1ccc(-c2cnc(N)c(C(=O)Nc3ccccc3)n2)cc1 (10 µM)
inactive: IRAK3 = 0 | JAK1 = 0 | LCK 0 | LIMK1 = 0 | LIMK2 = 0 | LMTK2 = 0 | LYN 0 | MAP2K1 = 0 | MAP2K2 = 0 | MAP4K2 = 0

COc1cc2c[n+](C)c3c4cc5c(cc4ccc3c2cc1OC)OCO5 [Nitidine (chloride)] (2 µM)
inactive: IRAK3 = 0 | JAK1 = 0 | LCK 0 | LIMK1 = 0 | LIMK2 = 0 | LMTK2 = 0 | LYN 0 | MAP2K1 = 0 | MAP2K2 = 0 | MAP4K2 = 0

O=C(/C=C/c1ccc(O)c(O)c1)c1ccc(O[C@@H]2O[C@H](CO)[C@@H](O)[C@H](O)[C@H]2O)c(O)c1O [Marein] (10 µM)
inactive: IRAK3 = 0 | JAK1 = 0 | LCK 0 | LIMK1 = 0 | LIMK2 = 0 | LMTK2 = 0 | LYN 0 | MAP2K1 = 0 | MAP2K2 = 0 | MAP4K2 = 0

CO[C@H]1C[C@@H]2CC[C@@H](C)[C@@](O)(O2)C(=O)C(=O)N2CCCC[C@H]2C(=O)O[C@H]([C@H](C)C[C@@H]2CC[C@@H](O)[C@H](OC)C2)CC(=O)[C@H](C)/C=C(\C)[C@@H](O)[C@@H](OC)C(=O)[C@H](C)C[C@H](C)/C=C/C=C/C=C/1C [Rapamycin] (10 µM)
inactive: IRAK3 = 0 | JAK1 = 0 | LCK 0 | LIMK1 = 0 | LIMK2 = 0 | LMTK2 = 0 | LYN 0 | MAP2K1 = 0 | MAP2K2 = 0 | MAP4K2 = 0

Cc1cc([C@H](C)Nc2ccccc2)c2oc(N3CCOCC3)cc(=O)c2c1 (10 µM)
inactive: IRAK3 = 0 | JAK1 = 0 | LCK 0 | LIMK1 = 0 | LIMK2 = 0 | LMTK2 = 0 | LYN 0 | MAP2K1 = 0 | MAP2K2 = 0 | MAP4K2 = 0

O=C1c2ccc(Nc3ccc(F)cc3F)cc2CCc2ccc(OC[C@H](O)CO)cc21 [Skepinone-L] (2.5 µM)
inactive: IRAK3 = 0 | JAK1 = 0 | LCK 0 | LIMK1 = 0 | LIMK2 = 0 | LMTK2 = 0 | LYN 0 | MAP2K1 = 0 | MAP2K2 = 0 | MAP4K2 = 0

Cn1cc(Nc2nccc(N3C[C@H]4CC[C@@H](C3)N4C(=O)[C@@H]3CC3(F)F)n2)cn1 (10 µM)
inactive: IRAK3 = 0 | JAK1 = 0 | LCK 0 | LIMK1 = 0 | LIMK2 = 0 | LMTK2 = 0 | LYN 0 | MAP2K1 = 0 | MAP2K2 = 0 | MAP4K2 = 0

Cn1cnc(-c2cc3nccc(Oc4ccc(NC(=S)NC(=O)Cc5ccccc5)cc4F)c3s2)c1 [MGCD-265 analog] (10 µM)
inactive: IRAK3 = 0 | JAK1 = 0 | LCK 0 | LIMK1 = 0 | LIMK2 = 0 | LMTK2 = 0 | LYN 0 | MAP2K1 = 0 | MAP2K2 = 0 | MAP4K2 = 0

COc1cc(S(C)(=O)=O)ccc1Nc1nc2ccc(-c3ccc(NC(=O)[C@H](C)c4ccc(F)cc4)cc3)cn2n1 [Empesertib] (10 µM)
inactive: IRAK3 = 0 | JAK1 = 0 | LCK 0 | LIMK1 = 0 | LIMK2 = 0 | LMTK2 = 0 | LYN 0 | MAP2K1 = 0 | MAP2K2 = 0 | MAP4K2 = 0

Cc1noc(C)c1-c1ccc(-c2cc(C(N)=O)c(NC(N)=O)s2)c(O[C@H]2CCNC2)c1 (10 µM)
inactive: IRAK3 = 0 | JAK1 = 0 | LCK 0 | LIMK1 = 0 | LIMK2 = 0 | LMTK2 = 0 | LYN 0 | MAP2K1 = 0 | MAP2K2 = 0 | MAP4K2 = 0

COC1(c2sc3c(N4CCOCC4)nc(-c4cnc(N)nc4)nc3c2C)COC1 (2.5 µM)
inactive: IRAK3 = 0 | JAK1 = 0 | LCK 0 | LIMK1 = 0 | LIMK2 = 0 | LMTK2 = 0 | LYN 0 | MAP2K1 = 0 | MAP2K2 = 0 | MAP4K2 = 0

CCn1c(C(=O)N(C2CC2)C2CC2)cc2c3c(ncn3C)c(Nc3cc(C)n(C)n3)nc21 (10 µM)
inactive: IRAK3 = 0 | JAK1 = 0 | LCK 0 | LIMK1 = 0 | LIMK2 = 0 | LMTK2 = 0 | LYN 0 | MAP2K1 = 0 | MAP2K2 = 0 | MAP4K2 = 0

Cn1cc(-c2ccc(CNc3cc(-c4cnc5cc(OCCCN6CCCC6)ccn45)ncn3)cc2)cn1 (10 µM)
inactive: IRAK3 = 0 | JAK1 = 0 | LCK 0 | LIMK1 = 0 | LIMK2 = 0 | LMTK2 = 0 | LYN 0 | MAP2K1 = 0 | MAP2K2 = 0 | MAP4K2 = 0

COc1cc(N2CCC(N3CCN(C)CC3)CC2)ccc1Nc1ncc(Cl)c(Nc2ccccc2P(C)(C)=O)n1 [Brigatinib] (2 µM)
inactive: IRAK3 = 0 | JAK1 = 0 | LCK 0 | LIMK1 = 0 | LIMK2 = 0 | LMTK2 = 0 | LYN 0 | MAP2K1 = 0 | MAP2K2 = 0 | MAP4K2 = 0

Six entries from above, ordered by heavy-atom count, high to low:
CO[C@H]1C[C@@H]2CC[C@@H](C)[C@@](O)(O2)C(=O)C(=O)N2CCCC[C@H]2C(=O)O[C@H]([C@H](C)C[C@@H]2CC[C@@H](O)[C@H](OC)C2)CC(=O)[C@H](C)/C=C(\C)[C@@H](O)[C@@H](OC)C(=O)[C@H](C)C[C@H](C)/C=C/C=C/C=C/1C [Rapamycin] (10 µM)
inactive: IRAK3 = 0 | JAK1 = 0 | LCK 0 | LIMK1 = 0 | LIMK2 = 0 | LMTK2 = 0 | LYN 0 | MAP2K1 = 0 | MAP2K2 = 0 | MAP4K2 = 0

COc1ncc(-c2nc(N3CCOCC3)nc3c(CN4CCC(C(C)(C)O)CC4)cc(F)cc23)cc1NS(C)(=O)=O [Linperlisib] (10 µM)
inactive: IRAK3 = 0 | JAK1 = 0 | LCK 0 | LIMK1 = 0 | LIMK2 = 0 | LMTK2 = 0 | LYN 0 | MAP2K1 = 0 | MAP2K2 = 0 | MAP4K2 = 0

Cn1cnc(-c2cc3nccc(Oc4ccc(NC(=S)NC(=O)Cc5ccccc5)cc4F)c3s2)c1 [MGCD-265 analog] (10 µM)
inactive: IRAK3 = 0 | JAK1 = 0 | LCK 0 | LIMK1 = 0 | LIMK2 = 0 | LMTK2 = 0 | LYN 0 | MAP2K1 = 0 | MAP2K2 = 0 | MAP4K2 = 0

O=C1c2ccc(Nc3ccc(F)cc3F)cc2CCc2ccc(OC[C@H](O)CO)cc21 [Skepinone-L] (2.5 µM)
inactive: IRAK3 = 0 | JAK1 = 0 | LCK 0 | LIMK1 = 0 | LIMK2 = 0 | LMTK2 = 0 | LYN 0 | MAP2K1 = 0 | MAP2K2 = 0 | MAP4K2 = 0

COC1(c2sc3c(N4CCOCC4)nc(-c4cnc(N)nc4)nc3c2C)COC1 (2.5 µM)
inactive: IRAK3 = 0 | JAK1 = 0 | LCK 0 | LIMK1 = 0 | LIMK2 = 0 | LMTK2 = 0 | LYN 0 | MAP2K1 = 0 | MAP2K2 = 0 | MAP4K2 = 0

CS(=O)(=O)c1ccc(-c2cnc(N)c(C(=O)Nc3ccccc3)n2)cc1 (10 µM)
inactive: IRAK3 = 0 | JAK1 = 0 | LCK 0 | LIMK1 = 0 | LIMK2 = 0 | LMTK2 = 0 | LYN 0 | MAP2K1 = 0 | MAP2K2 = 0 | MAP4K2 = 0

Next part:

O=C(Nc1cccnc1)c1cc(C(=O)c2c(F)cccc2Br)c[nH]1 (10 µM)
inactive: IRAK3 = 0 | JAK1 = 0 | LCK 0 | LIMK1 = 0 | LIMK2 = 0 | LMTK2 = 0 | LYN 0 | MAP2K1 = 0 | MAP2K2 = 0 | MAP4K2 = 0

Cc1c(CN2CCN(S(C)(=O)=O)CC2)sc2c(N3CCOCC3)nc(-c3cnc(N)nc3)nc12 (2.5 µM)
inactive: IRAK3 = 0 | JAK1 = 0 | LCK 0 | LIMK1 = 0 | LIMK2 = 0 | LMTK2 = 0 | LYN 0 | MAP2K1 = 0 | MAP2K2 = 0 | MAP4K2 = 0
